Results from US8894993B2, “Mitochondria-targeted antioxidants” (Natreon Inc., priority 2006, dated 2014).

Columns and labels:
[1] = DBPs isolated from animal liver mitochondria (goat); details: endogenous level
[2] = DBPs isolated from animal liver mitochondria (chicken); details: endogenous level
[3] = DBP products in mice liver mitochondria before and after DBPs treatment, HPTLC; type: in vivo, Swiss Albino mice; details: control mice
Description: Mitochondria were isolated from heart and liver of chicken, goat and mice following a published procedure (Liu Y, Deng F, Zhao R and Qu S, Chemosphere, 40(8):851-854, 2000). […] The tissue was cut into small pieces, homogenized and centrifuged at 900 g for one minute. The supernatant was again centrifuged twice, for 20 minutes each time at 900 g. The sediment at each step was discarded. The clear supernatant was centrifuged twice at 12,000 g, 20 minutes each time, to form pellets of a mitochondria-enriched fraction. The fraction was divided into two parts. One part was resuspended in a measured volume of distilled water and sonicated (10 min×2). […] The two extracts were subjected to comprehensive HPTLC and HPLC analyses for detection and quantitation of DBPs and their equivalents. […] One hour after administration the animals were sacrificed and mitochondria from liver were isolated and analyzed as described for Example 6. […] Mobile Phase—Chloroform:Methanol 90:10 Sample application—CAMAG LINOMAT 5 (Automated applicator) Detection—240 nm (CAMAG TLC SCANNER 3) 3-OH-DBP and 3,8-(OH)2-DBP (and their conjugates) were detected in mitochondria of control mice by HPTLC. Administration of DBPs to the animals increased the amount of DBPs and its products in mitochondria as detected by using authentic markers of the two DBPs (Table 2).

[4] = cited from earlier work

Structure (SMILES) | amount in mitochondria enriched fraction isolated from liver [1] | amount in mitochondria enriched fraction isolated from liver [2] | Amount in mitochondria before DBP treatment [3] [nmol/gm wet wt] | Plasma level ([4]; normal human volunteers 20-40 years, n = 5) [µg/L] | Plasma level ([4]; normal human volunteers 41-65 years, n = 40) [µg/L]
O=c1oc2cc(O)ccc2c2ccc(O)cc12 [3,8-(OH)2-DBP, 3,8-dihydroxydibenzo-α-pyrone] | 10.00 ng/mg mitochondria enriched fraction | 0.67 ng/mg mitochondria enriched fraction | 0.5 | – | –
O=c1oc2cc(O)ccc2c2cc(-c3cc4c(cc3O)c(=O)oc3cc(O)ccc34)c(O)cc12 [3,8-(OH)2-DBP-dimer, 3,3′,8,8′-tetrahydroxy-9,9′-bis-dibenzo-α-pyrone] | – | – | 22.9 | – | –
O=c1oc2cc(O)ccc2c2ccccc12 [3-OH-DBP, 3-hydroxydibenzo-α-pyrone] | 80.00 ng/mg mitochondria enriched fraction | 0.78 ng/mg mitochondria enriched fraction | – | – | –
COC1=C(OC)C(=O)C(C/C=C(\C)CC/C=C(\C)CC/C=C(\C)CC/C=C(\C)CC/C=C(\C)CC/C=C(\C)CC/C=C(\C)CC/C=C(\C)CC/C=C(\C)CCC=C(C)C)=C(C)C1=O [CoQ10] | – | – | – | 1726.8 ± 215.75 | 897.9 ± 302

Read-outs that look alike come from different tables or passages of the source.
